{"sequences": {"note": "By UniProt entry, the sequences of proteins in these tests, tags left out. Residues count along the entry.", "UniProt P43220, residues 24-463": "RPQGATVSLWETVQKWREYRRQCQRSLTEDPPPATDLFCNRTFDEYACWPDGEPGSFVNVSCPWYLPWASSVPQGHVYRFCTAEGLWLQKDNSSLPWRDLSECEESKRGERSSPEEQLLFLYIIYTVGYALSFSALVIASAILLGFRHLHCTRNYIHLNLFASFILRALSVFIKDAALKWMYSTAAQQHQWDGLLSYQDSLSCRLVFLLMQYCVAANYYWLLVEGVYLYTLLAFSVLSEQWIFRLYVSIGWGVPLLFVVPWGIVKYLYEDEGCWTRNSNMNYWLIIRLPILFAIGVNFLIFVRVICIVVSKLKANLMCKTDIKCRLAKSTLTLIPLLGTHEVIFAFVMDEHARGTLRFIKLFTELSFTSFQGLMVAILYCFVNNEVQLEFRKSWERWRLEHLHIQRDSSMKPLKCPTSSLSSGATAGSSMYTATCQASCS", "UniProt P32121": "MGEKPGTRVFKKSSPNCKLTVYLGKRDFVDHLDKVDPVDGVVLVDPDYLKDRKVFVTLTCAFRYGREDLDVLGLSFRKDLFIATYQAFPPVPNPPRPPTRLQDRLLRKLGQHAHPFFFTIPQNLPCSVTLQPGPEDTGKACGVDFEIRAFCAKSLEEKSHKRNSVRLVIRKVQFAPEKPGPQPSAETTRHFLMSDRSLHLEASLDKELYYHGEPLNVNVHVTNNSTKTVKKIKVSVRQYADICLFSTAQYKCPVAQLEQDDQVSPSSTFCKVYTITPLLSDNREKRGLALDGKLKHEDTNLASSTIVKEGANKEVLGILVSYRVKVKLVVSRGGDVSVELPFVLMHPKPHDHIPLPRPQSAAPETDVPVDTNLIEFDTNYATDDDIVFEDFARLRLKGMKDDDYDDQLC"}, "source": "paper doi:10.1101/2022.08.17.504231", "target": "GLP-1R-SmBiT (UniProt P43220)", "assay": "split reporter", "note": "No constants are given. Whether binding was seen depends on the method and setting. In cells and extracts the contact can be indirect. Some entries that bind do so weakly or less than the wild type."}
{"substance": "LgBiT-β-arrestin 2 (from UniProt P32121 1-409)", "values": [{"measurement": "binding", "result": "binds"}]}
